The values that follow come from PMC7879653.

Protein sequences, listed by entry. Tags and fused reporters are not part of them.
UniProt Q16665: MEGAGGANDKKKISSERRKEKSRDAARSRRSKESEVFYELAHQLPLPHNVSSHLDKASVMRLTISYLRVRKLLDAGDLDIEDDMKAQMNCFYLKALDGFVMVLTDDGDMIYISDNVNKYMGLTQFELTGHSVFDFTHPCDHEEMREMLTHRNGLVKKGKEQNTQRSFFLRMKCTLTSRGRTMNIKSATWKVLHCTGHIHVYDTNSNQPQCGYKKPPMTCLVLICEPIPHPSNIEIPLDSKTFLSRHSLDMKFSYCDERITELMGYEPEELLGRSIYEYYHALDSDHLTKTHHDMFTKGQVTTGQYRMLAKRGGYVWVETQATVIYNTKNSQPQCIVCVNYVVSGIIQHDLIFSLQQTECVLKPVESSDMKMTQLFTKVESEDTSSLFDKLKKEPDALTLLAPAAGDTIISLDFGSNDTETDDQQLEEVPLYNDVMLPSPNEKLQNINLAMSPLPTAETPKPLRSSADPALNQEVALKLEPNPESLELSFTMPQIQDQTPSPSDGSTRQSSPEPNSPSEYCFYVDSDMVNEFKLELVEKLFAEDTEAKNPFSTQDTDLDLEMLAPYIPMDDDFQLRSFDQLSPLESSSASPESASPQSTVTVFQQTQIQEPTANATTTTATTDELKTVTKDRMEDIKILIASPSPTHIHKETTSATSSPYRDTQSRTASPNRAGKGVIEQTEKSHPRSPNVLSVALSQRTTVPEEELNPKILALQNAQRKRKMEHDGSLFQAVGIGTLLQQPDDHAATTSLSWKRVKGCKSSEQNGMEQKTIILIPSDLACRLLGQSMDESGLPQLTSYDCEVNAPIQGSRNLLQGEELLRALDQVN

No constants are given. Whether binding was seen depends on the method and setting. Binding seen in cells or lysates may run through a third protein. Some results given as binding are weak or reduced against the parent protein; the word gives no strength. For some assays here: Tags and fused reporters may be left off the sequences shown.

Assay [1] concerns the target T1, PSF (polypyrimidine tract-binding protein-associated splicing factor), endogenous (human (endogenous in HRMECs)) (UniProt P23246).
T1 sequence: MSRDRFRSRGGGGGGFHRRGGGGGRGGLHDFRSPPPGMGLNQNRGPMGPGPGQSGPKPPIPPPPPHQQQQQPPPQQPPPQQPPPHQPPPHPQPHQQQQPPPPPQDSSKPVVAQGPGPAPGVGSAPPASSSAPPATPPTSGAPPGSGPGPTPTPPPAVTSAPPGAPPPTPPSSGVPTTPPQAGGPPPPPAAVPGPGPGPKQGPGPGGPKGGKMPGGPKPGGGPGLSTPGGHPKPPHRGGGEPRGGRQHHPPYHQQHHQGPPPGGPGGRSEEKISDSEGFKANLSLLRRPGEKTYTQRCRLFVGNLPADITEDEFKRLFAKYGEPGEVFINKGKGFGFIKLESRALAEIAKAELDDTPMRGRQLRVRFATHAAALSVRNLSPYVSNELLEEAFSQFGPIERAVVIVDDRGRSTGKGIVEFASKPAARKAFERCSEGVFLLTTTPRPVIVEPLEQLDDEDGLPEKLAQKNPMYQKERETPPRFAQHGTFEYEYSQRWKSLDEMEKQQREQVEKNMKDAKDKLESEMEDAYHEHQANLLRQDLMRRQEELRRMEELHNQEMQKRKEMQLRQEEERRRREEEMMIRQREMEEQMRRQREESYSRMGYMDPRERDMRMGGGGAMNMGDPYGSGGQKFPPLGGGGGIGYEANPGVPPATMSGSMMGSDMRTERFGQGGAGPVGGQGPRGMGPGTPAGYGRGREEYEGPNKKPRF
Kind of assay: co-IP; antibodies against PSF incubated with nuclear cell lysates from hypoxia-treated HRMECs; blot for PSF, Hakai and HIF-1α.

Assay [2] concerns the target T1, PSF (polypyrimidine tract-binding protein-associated splicing factor), endogenous (human (endogenous in HRMECs)). Kind of assay: co-IP; endogenous proteins; HRMECs exposed to hypoxia (3 h, or a time course of 30 to 150 min); RIPA lysis; total cell lysates precipitated with anti-PSF antibody and protein G/A-Sepharose; blot with anti-HIF-1α, anti-PSF or anti-Hakai; cells untreated or transfected with scrambled siRNA, PSF siRNA or pcDNA-His-PSF.

Assay [3] shares this target. Description: co-IP; as a5, but nuclear cell lysates from control HRMECs (no hypoxia).
The target in assay [4] is T2, His-tagged PSF (polypyrimidine tract-binding protein-associated splicing factor) (UniProt P23246).
T2 sequence: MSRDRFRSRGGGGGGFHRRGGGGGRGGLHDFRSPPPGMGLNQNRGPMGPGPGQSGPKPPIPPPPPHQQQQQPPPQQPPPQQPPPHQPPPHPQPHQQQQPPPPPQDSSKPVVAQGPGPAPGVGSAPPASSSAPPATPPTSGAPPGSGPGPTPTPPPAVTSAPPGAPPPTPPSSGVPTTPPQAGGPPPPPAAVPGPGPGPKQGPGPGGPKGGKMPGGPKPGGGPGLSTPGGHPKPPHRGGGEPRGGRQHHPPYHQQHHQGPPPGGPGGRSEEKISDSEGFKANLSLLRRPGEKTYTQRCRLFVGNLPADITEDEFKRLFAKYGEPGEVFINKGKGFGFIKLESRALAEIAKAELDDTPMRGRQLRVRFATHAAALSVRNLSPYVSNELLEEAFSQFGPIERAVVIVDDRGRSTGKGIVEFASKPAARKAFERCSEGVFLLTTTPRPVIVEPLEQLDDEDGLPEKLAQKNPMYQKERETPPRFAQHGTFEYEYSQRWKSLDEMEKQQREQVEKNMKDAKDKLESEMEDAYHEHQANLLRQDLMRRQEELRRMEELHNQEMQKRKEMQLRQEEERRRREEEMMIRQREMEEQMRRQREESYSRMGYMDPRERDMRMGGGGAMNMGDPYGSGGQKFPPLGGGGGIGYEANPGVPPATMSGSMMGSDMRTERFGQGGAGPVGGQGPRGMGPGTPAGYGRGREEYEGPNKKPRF
Description: condition: only cells without hypoxia (normoxic control); co-IP; as a1, but cells left in normoxic condition (parallel control without hypoxia).

Assay [5] deals with T2, His-tagged PSF (polypyrimidine tract-binding protein-associated splicing factor). Kind of assay: co-IP; HRMECs co-transfected with pCIneo-HIF-1α-HA and pcDNA3.1-His-PSF, 36 h, then hypoxia 3 h; RIPA lysis; whole cell lysates precipitated with anti-His or anti-HA antibody and protein G/A-Sepharose; blot with anti-HA or anti-His.
Substrate in assay [6]: T3, PSF (polypyrimidine tract-binding protein-associated splicing factor), endogenous (human (endogenous in HRMECs)) (UniProt P23246)
T3 sequence: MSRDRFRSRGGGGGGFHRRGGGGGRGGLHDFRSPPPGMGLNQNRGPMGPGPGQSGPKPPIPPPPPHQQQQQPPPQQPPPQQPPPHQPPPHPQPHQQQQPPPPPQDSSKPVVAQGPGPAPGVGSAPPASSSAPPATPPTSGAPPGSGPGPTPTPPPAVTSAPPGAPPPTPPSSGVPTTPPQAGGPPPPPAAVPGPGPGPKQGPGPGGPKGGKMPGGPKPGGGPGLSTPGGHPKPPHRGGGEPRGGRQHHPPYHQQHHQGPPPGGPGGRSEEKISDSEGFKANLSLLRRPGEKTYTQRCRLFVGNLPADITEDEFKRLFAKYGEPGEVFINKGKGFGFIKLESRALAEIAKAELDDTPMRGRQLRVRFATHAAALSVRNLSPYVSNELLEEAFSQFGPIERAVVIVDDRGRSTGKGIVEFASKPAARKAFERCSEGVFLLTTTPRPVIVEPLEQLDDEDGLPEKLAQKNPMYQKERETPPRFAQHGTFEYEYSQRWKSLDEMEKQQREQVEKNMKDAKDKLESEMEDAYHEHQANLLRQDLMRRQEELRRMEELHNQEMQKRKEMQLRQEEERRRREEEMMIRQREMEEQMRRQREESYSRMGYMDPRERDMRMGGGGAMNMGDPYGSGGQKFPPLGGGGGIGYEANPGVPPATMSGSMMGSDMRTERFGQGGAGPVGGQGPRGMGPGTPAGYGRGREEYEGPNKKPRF
Description: co-IP; as a5, but nuclear cell lysates from control HRMECs (no hypoxia). This is another data set of the same source.

For assay [7], the target named is T2, His-tagged PSF (polypyrimidine tract-binding protein-associated splicing factor). Description: co-IP; as a3, but cells without hypoxia stimulation.
Substrate in assay [8]: T3, 
Description: co-IP; endogenous proteins; HRMECs exposed to hypoxia (3 h, or a time course of 30 to 150 min); RIPA lysis; total cell lysates precipitated with anti-PSF antibody and protein G/A-Sepharose; blot with anti-HIF-1α, anti-PSF or anti-Hakai; cells untreated or transfected with scrambled siRNA, PSF siRNA or pcDNA-His-PSF. This is another data set of the same source.

Substrate in assay [9]: T3, 
Description: co-IP; as a3, but cells without hypoxia stimulation.

Substrate in assay [10]: T3, 
Description: co-IP; antibodies against PSF incubated with nuclear cell lysates from hypoxia-treated HRMECs; blot for PSF, Hakai and HIF-1α. The source holds these as a separate data set.

Assay [11] has as its target T2, His-tagged PSF (polypyrimidine tract-binding protein-associated splicing factor). Description: co-IP; endogenous proteins; HRMECs exposed to hypoxia (3 h, or a time course of 30 to 150 min); RIPA lysis; total cell lysates precipitated with anti-PSF antibody and protein G/A-Sepharose; blot with anti-HIF-1α, anti-PSF or anti-Hakai; cells untreated or transfected with scrambled siRNA, PSF siRNA or pcDNA-His-PSF.

For the molecule “HIF-1α (hypoxia-inducible factor-1 alpha), endogenous (from UniProt Q16665 1-826)”, the binding result is on record as “binds” in [1], “binds” in assay [2] and “no binding (condition: cells without hypoxia (control))” in [3].
Take “HA-tagged HIF-1α (hypoxia-inducible factor-1 alpha) (from UniProt Q16665 1-826)”: the binding result is “no binding” in [4] and “binds” in assay [5].

B1: Hakai (E3 ubiquitin ligase), endogenous (protein, UniProt Q75N03 1-491)
chain: MDHTDNELQGTNSSGSLGGLDVRRRIPIKLISKQANKAKPAPRTQRTINRMPAKAPPGDEEGFDYNEEERYDCKGGELFANQRRFPGHLFWDFQINILGEKDDTPVHFCDKCGLPIKIYGRMIPCKHVFCYDCAILHEKKGDKMCPGCSDPVQRIEQCTRGSLFMCSIVQGCKRTYLSQRDLQAHINHRHMRAGKPVTRASLENVHPPIAPPPTEIPERFIMPPDKHHMSHIPPKQHIMMPPPPLQHVPHEHYNQPHEDIRAPPAELSMAPPPPRSVSQETFRISTRKHSNLITVPIQDDSNSGAREPPPPAPAPAHHHPEYQGQPVVSHPHHIMPPQQHYAPPPPPPPPISHPMPHPPQAAGTPHLVYSQAPPPPMTSAPPPITPPPGHIIAQMPPYMNHPPPGPPPPQHGGPPVTAPPPHHYNPNSLPQFTEDQGTLSPPFTQPGGMSPGIWPAPRGPPPPPRLQGPPSQTPLPGPHHPDQTRYRPYYQ
Turning to B1, the binding entry in assay [6] is given as “no binding (condition: cells without hypoxia (control))”; in assay [7], “no binding (condition: cells without hypoxia)”; in assay [8] it was “binds”; in assay [9], “no binding (condition: cells without hypoxia)”; in assay [10] it was “binds”; in assay [11] it was “binds”.
